Measured values as given in patent publication US20080167271A1, “PHARMACEUTICAL COMPOSITIONS COMPRISING A BISPHOSPHONATE COMPOUND” (Besins Healthcare SA, priority 2006, published 2008).

Assays:
[1] = system: human abdominal dermatomed skin; assay: In vitro dermal absorption, Franz cell assay; format: in vitro ADME
[2] = rat, published data (Lin, Russel, Gertz 1999); cited from earlier work

**Q.** For `NCCCC(O)(P(=O)(O)O)P(=O)(O)O` [alendronate, 4-amino-1-hydroxybutylidene-1,1-bisphosphonic acid], which “effect of glycerine on amount recovered in the receptor fluid and the dermis” value ([1]; FIGS. 12-13) is on record?
**A.** Its value is “neutral effect”.

**Q.** And the “percutaneous absorption: recovery in the receptor fluid and the dermis” value ([1]; Franz cell, human skin, 24 hrs)?
**A.** Its value is “does cross the skin”.

**Q.** What about the “effect of urea on amount recovered in the receptor fluid and dermis/skin” value ([1]; buffered solution vs 100% phosphate buffer, FIGS. 10-11) of the same compound?
**A.** Its value is “neutral effect”.

**Q.** What about the “effect of alcohol content on the percentage of absorption” value ([1]; ethanol/water versus pure aqueous compositions, FIG. 4) of the same compound?
**A.** The value was “does not detrimentally affect”.

**Q.** What about the “in vitro absorption in rats versus humans” value ([1]; higher in rats than in humans) of the same compound?
**A.** Its value is 10 fold.

**Q.** And the “absorption rate in vitro” value ([1]; human skin Franz cell, Example 2)?
**A.** Its value is 0.6%.

**Q.** And the “effect of menthol on amount recovered in the receptor fluid and dermis” value ([1]; menthol at 90% of saturating concentration in 90/10 phosphate buffer/ethanol vs phosphate buffer solution, FIGS. 6-7)?
**A.** Its value is “does not increase”.

**Q.** And the “effect of urea on amount recovered in the receptor fluid and dermis” value ([1]; urea in phosphate buffer solution, FIGS. 8-9)?
**A.** The value was “neutral effect”.

**Q.** And the “effect of propylene glycol (PG) on amount recovered” value ([1]; vs 100% phosphate buffer solution, FIGS. 10-11)?
**A.** Its value is “tends to reduce”.

**Q.** What about the “effect of the increase in alcohol content on absorption (percentage of the dose applied)” value ([1]; water/alcohol solutions, FIGS. 1-2) of the same compound?
**A.** Its value is “not significantly modified”.

**Q.** And the “urinary recovery after IV administration” value [2]?
**A.** The value was 36%.
